Results taken from publication PMC4888889.
The exact form of at least one protein or probe is not confirmed. For some assays here: Where cells or extracts were used, other partners may take part. For some assays here: Negatives hold for the conditions tested. For some assays here: Where a protein sequence is shown, tags need not be part of it.

What was measured:
[1] = biological target: T1, GlnR (endogenous) (Streptococcus salivarius 57.I) (UniProt Q5UBU4); test: pull-down (DAPA); conditions: 20 nM probe, 500 ug lysate; DAPA: 10 mM Tris-HCl pH 7.6, 60 mM KCl, 5% glycerol, 0.5 mM EDTA, 1 mM DTT, 4 C 1 h; protein in an extract; label: biotin 3' end
T1 sequence (looked up, limits assumed): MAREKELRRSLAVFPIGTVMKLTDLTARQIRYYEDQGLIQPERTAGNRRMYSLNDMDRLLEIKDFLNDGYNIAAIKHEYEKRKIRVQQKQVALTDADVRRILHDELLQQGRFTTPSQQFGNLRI

[2] = test system: MalE-alpha-CTD (RNA polymerase alpha subunit C-terminal domain); test: EMSA; conditions: 0.25-4 uM protein, abolished by 300-fold unlabeled probe; EMSA: 50 mM Tris-HCl pH 7.4, 50 mM KCl, 2 mM MgCl2, 100 ng poly(dI-dC), 0.5 ug BSA, 0.01 pmol probe, 4 C 30 min; recombinant protein; protein details: MalE (MBP); label: biotin
[3] = biological target: T2, VicR (endogenous) (Streptococcus salivarius 57.I) (UniProt J7TI38); test: pull-down (DAPA); conditions: 20 nM probe, 1 mg lysate; DAPA: 10 mM Tris-HCl pH 7.6, 60 mM KCl, 5% glycerol, 0.5 mM EDTA, 1 mM DTT, 4 C 1 h; protein in an extract; label: biotin 3' end
T2 sequence (looked up, limits assumed): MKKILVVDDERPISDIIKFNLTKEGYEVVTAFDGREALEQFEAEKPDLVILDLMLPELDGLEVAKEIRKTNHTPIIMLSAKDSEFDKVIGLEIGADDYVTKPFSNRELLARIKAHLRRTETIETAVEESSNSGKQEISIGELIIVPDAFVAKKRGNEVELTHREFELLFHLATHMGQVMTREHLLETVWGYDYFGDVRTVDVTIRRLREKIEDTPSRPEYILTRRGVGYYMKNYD

| Sequence | binding result [1] | binding result [3] | also measured |
| --- | --- | --- | --- |
| ACCACATGTTAGCTTGACTAATATGTAAAT (double strand) [GlnR box 1 probe] | binds |  |  |
| CCTGTAAATGTTGCAAAATCC (double strand) [21-bp alpha-CTD probe (VicR box / UP element)] |  |  | binding result [2]: binds |
| CTAATATGTAAATGTTGCAAAATTTCTGAA (double strand) [VicR box probe] |  | binds |  |
| CTAATACTAGTGTAATAATAGTATTCTGAA (double strand) [mutated VicR box probe] |  | no binding |  |
| AATGTAATGTCATTTTTTGACACCACATGT (double strand) [GlnR box 2 probe] | binds |  |  |
